# Results are given in words; binding and its absence hold for the method and conditions named. In cells and extracts the contact can be indirect. Some binding calls cover weakened binding; strength is not graded here.
# Chains of the proteins cited; added tags and fusions are not shown. Lines headed by an entry give the natural chain unless they say otherwise; changes in a name come on top. Residues count along the entry.
# UniProt O75533: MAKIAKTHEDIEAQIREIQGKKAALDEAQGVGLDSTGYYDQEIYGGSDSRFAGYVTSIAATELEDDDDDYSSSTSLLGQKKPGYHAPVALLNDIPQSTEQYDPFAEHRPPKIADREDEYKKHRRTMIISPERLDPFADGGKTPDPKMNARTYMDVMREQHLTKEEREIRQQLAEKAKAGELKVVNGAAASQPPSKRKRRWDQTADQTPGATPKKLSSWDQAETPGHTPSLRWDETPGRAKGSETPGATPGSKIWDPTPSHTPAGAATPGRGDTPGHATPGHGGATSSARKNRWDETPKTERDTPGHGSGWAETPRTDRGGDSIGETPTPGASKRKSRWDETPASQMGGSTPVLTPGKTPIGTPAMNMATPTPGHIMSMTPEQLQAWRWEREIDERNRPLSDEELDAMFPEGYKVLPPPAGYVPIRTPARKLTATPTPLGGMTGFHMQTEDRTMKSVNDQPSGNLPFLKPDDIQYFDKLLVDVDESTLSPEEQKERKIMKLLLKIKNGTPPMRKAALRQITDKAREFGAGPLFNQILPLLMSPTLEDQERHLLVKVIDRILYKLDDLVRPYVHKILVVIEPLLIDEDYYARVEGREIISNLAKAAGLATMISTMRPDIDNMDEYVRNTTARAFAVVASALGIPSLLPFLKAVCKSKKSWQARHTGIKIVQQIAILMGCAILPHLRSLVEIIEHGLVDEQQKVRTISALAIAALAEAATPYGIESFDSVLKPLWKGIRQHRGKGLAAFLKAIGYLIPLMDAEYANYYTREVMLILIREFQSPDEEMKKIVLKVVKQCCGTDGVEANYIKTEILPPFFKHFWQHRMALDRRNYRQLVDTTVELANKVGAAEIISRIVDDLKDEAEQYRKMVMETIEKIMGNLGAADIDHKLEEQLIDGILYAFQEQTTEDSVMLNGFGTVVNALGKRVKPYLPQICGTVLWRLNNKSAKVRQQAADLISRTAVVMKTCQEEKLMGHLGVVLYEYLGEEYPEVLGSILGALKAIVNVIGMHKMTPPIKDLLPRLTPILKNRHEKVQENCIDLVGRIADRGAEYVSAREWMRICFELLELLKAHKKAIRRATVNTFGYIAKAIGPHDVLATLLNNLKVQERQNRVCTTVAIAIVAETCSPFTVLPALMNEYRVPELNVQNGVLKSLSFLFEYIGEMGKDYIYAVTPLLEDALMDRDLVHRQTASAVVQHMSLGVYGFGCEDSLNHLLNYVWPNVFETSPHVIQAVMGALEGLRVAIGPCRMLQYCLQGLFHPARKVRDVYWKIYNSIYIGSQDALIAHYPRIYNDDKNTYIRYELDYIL
# UniProt Q15393: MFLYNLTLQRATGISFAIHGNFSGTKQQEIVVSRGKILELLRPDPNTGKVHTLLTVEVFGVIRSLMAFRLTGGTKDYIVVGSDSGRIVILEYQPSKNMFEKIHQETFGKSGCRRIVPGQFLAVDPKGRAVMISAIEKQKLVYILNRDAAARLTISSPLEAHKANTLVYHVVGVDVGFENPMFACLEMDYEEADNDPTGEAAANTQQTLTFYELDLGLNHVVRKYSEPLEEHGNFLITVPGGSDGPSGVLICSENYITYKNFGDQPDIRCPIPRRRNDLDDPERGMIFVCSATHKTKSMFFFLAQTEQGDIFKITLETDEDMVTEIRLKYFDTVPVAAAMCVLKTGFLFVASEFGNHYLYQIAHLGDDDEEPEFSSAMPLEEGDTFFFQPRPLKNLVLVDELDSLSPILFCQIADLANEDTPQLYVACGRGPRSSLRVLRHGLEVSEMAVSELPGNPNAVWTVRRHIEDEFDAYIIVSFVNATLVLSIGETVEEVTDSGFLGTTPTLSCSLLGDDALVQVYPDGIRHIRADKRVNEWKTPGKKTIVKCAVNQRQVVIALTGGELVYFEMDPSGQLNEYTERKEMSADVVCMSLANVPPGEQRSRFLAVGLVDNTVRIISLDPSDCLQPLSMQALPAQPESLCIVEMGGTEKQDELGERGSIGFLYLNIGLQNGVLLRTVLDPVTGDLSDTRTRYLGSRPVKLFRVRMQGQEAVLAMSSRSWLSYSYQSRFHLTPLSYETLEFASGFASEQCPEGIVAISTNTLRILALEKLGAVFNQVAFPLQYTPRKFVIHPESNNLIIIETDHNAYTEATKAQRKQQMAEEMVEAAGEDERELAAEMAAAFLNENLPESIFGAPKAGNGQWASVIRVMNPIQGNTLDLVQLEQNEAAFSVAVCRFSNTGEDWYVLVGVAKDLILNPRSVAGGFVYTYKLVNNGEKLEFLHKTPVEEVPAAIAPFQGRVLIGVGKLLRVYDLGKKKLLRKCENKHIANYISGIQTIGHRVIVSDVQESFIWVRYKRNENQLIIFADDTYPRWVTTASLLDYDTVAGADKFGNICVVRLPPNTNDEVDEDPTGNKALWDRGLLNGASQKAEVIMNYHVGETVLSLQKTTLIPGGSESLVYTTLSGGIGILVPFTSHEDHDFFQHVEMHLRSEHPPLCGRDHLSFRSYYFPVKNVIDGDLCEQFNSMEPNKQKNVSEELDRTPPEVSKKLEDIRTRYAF
# UniProt Q9BWJ5, residues 2-86: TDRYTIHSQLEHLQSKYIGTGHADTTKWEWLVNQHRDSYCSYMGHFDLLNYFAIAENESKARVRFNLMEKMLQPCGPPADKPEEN
# Legend:
# [1] = target: truncated SF3B1, HEAT repeat domain residues 454-1304, with N-terminal FLAG tag (human) (UniProt O75533); test: recombinant four-protein complex, co-purification
# [2] = target: truncated SF3B1, HEAT repeat domain residues 454-1304, with N-terminal FLAG tag (human) (UniProt O75533); test: co-expression in SF21 cells, co-purification on nickel and FLAG beads, gel filtration
binding [1],binding [2],Substance
binds,binds,full-length SF3B3 with N-terminal His-tag (from UniProt Q15393 1-1217)
binds,binds,full-length SF3B5 with N-terminal His-tag (from UniProt Q9BWJ5 2-86)

# Source: US20200190593A1, “SPLICEOSOME MUTATIONS AND USES THEREOF” (EISAI R&D MANAGEMENT CO., LTD., priority 2017, published 2020)
